{"source": "patent US20040209954A1", "about": "“Compositions and methods for treating body malodor and fungal overgrowth in mammals” (priority 2003, published 2004)", "test_system": "Staphyloccus aureus", "assay": "Minimum Inhibitory Concentration (MIC), antibacterial", "format": "cell-based", "note": "Some entries share one result that the patent states for a list of compounds.", "data": [{"compound": "C[N+]1(C)CCCC(OC(=O)C(O)(c2ccccc2)c2ccccc2)C1", "note": "(stereo not shown) [Mepenzolate bromide]", "values": [{"measurement": "MIC", "value": "0.5-1%"}]}]}
